Experimental data published in PubChem BioAssay AID256 (DTP/NCI, 2004).
The list is a part of this screen's results and no random one: it is rich in T/C values a quarter to a half above the control, in often repeated tests (any T/C) and in doses without a T/C. Further doses and runs are listed elsewhere. T/C is the treated group as % of the vehicle group. Some doses have a count of surviving animals in place of a T/C: the source files T/C as zero there, which appears to mark a toxic dose or a test without result, not a measured value. Some survivor counts are full or nearly so, which does not show that the dose was tolerated: the source hardly ever lists a survival T/C far under the control, and the zero likely stands for such cases as well. Counts of survivors are from the toxicity check (mostly the fifth day) where no day follows; animals may have died later. Schedule codes are those of the source, read here as Q, the interval in days (D) or hours (H), X, the number of doses. Where survival is the endpoint, the PubChem record calls one and a half times the control and up active, and a quarter to a half above the control has no call in these data; cut-offs in other NCI protocols can differ. Some T/C values are followed by the survivors on the day toxicity was checked, most often the fifth; where none is given, no animal had died by that day. Some entries hold several experiments; the values are given in rising order. Brackets with × count equal records among those shown. Some schedule codes hold Z or #, which are not explained here.

System: CD2F1 mice, L1210 leukemia ip, survival T/C
Assay: NCI In Vivo Anticancer Drug Screen. Data for tumor model L1210 Leukemia (intraperitoneal) in CD2F1 (CDF1) mice
Conditions: T/C endpoint: mean survival time, higher T/C = longer survival
Method in brief: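 Transplantable tumor in mice; compound-treated vs vehicle-treated groups. Read-out = treated/control ratio of the measured endpoint.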

N[C@@H](Cc1ccc(N(CCCl)CCCl)cc1)C(=O)O
T/C (dose: 0.5 mg/kg/injection, schedule: Q01DX009 (ip), vehicle: Klucel (hydroxypropylcellulose) (HPC)): 111, 113 (2×), 116, 125 % of control [5 of 6 alive]
T/C (dose: 0.5 mg/kg/injection, schedule: Q01DX009 (ip), vehicle: saline, evaluated on day 30): 106, 128 (2×), 157 % of control
T/C (dose: 0.5 mg/kg/injection, schedule: Q01DX009 (ip), vehicle: saline, evaluated on day 45): 137 % of control
T/C (dose: 1.0 mg/kg/injection, schedule: Q01DX009 (ip), vehicle: Klucel (hydroxypropylcellulose) (HPC)): 119, 121, 127 (2×), 127 % of control [5 of 6 alive]
T/C (dose: 1.0 mg/kg/injection, schedule: Q01DX009 (ip), vehicle: saline, evaluated on day 30): 130, 136, 158, 197 % of control
T/C (dose: 1.0 mg/kg/injection, schedule: Q01DX009 (ip), vehicle: saline, evaluated on day 45): 132 % of control
T/C (dose: 1.0 mg/kg/injection, schedule: Q04DX003 (ip), vehicle: saline, evaluated on day 5): 127 % of control
T/C (dose: 1.0 mg/kg/injection, schedule: Q04DX003 (ip), vehicle: saline, evaluated on day 30): 131 and 143 % of control
T/C (dose: 1.0 mg/kg/injection, schedule: Q04DX003 (ip), vehicle: saline, evaluated on day 45): 130 % of control
T/C (dose: 1.0 mg/kg/injection, schedule: Q## X010 (ip), vehicle: saline): 136 % of control
T/C (dose: 1.25 mg/kg/injection, schedule: Q01DX009 (ip), vehicle: saline): 132 % of control
T/C (dose: 1.5 mg/kg/injection, schedule: Q01DX009 (ip), vehicle: Klucel (hydroxypropylcellulose) (HPC)): 133 % of control
T/C (dose: 1.5 mg/kg/injection, schedule: Q04DX003 (ip), vehicle: saline): 137 % of control
T/C (dose: 2.0 mg/kg/injection, schedule: Q01DX001 (ip), vehicle: DMSO): 131 % of control
T/C (dose: 2.0 mg/kg/injection, schedule: Q01DX001 (ip), vehicle: Klucel (hydroxypropylcellulose) (HPC)): 127 % of control
T/C (dose: 2.0 mg/kg/injection, schedule: Q01DX001 (ip), vehicle: saline, evaluated on day 30): 107, 117, 129 % of control
T/C (dose: 2.0 mg/kg/injection, schedule: Q01DX001 (ip), vehicle: saline, evaluated on day 45): 138 % of control
T/C (dose: 2.0 mg/kg/injection, schedule: Q01DX009 (ip), vehicle: Klucel (hydroxypropylcellulose) (HPC)): 136, 138, 142, 146, 148 % of control
T/C (dose: 2.0 mg/kg/injection, schedule: Q01DX009 (ip), vehicle: saline, evaluated on day 30): 105, 143, 155, 162, 163 % of control
T/C (dose: 2.0 mg/kg/injection, schedule: Q01DX009 (ip), vehicle: saline, evaluated on day 45): 161 % of control
T/C (dose: 2.0 mg/kg/injection, schedule: Q01DX009 (ip), vehicle: water): 133 % of control
T/C (dose: 2.0 mg/kg/injection, schedule: Q03DX003 (ip), vehicle: saline): 146 % of control
T/C (dose: 2.0 mg/kg/injection, schedule: Q04DX003 (ip), vehicle: saline, evaluated on day 5): 119, 132, 161 % of control
T/C (dose: 2.0 mg/kg/injection, schedule: Q04DX003 (ip), vehicle: saline, evaluated on day 30): 116, 125, 147, 157 % of control
T/C (dose: 2.0 mg/kg/injection, schedule: Q04DX003 (ip), vehicle: saline, evaluated on day 45): 150 % of control
T/C (dose: 2.0 mg/kg/injection, schedule: Q## X010 (ip), vehicle: saline): 137 % of control
T/C (dose: 2.0 mg/kg/injection, schedule: Q## X010 (oral), vehicle: saline): 126 % of control
T/C (dose: 2.5 mg/kg/injection, schedule: Q04DX003 (ip), vehicle: saline): 132 % of control
T/C (dose: 3.0 mg/kg/injection, schedule: Q04DX003 (ip), vehicle: saline): 144 % of control
T/C (dose: 4.0 mg/kg/injection, schedule: Q01DX001 (ip), vehicle: DMSO): 132 % of control
T/C (dose: 4.0 mg/kg/injection, schedule: Q01DX001 (ip), vehicle: Klucel (hydroxypropylcellulose) (HPC)): 126 % of control
T/C (dose: 4.0 mg/kg/injection, schedule: Q01DX001 (ip), vehicle: saline with Tween-80): 140 % of control
T/C (dose: 4.0 mg/kg/injection, schedule: Q01DX001 (ip), vehicle: saline, evaluated on day 30): 119, 124, 141 % of control
T/C (dose: 4.0 mg/kg/injection, schedule: Q01DX001 (ip), vehicle: saline, evaluated on day 45): 135 % of control
T/C (dose: 4.0 mg/kg/injection, schedule: Q01DX005 (oral), vehicle: saline): 141 % of control
T/C (dose: 4.0 mg/kg/injection, schedule: Q01DX009 (ip), vehicle: Klucel (hydroxypropylcellulose) (HPC)): 155, 158, 172, 182, 196 % of control
T/C (dose: 4.0 mg/kg/injection, schedule: Q01DX009 (ip), vehicle: saline, evaluated on day 30): 103, 175, 177, 178, 192 % of control
T/C (dose: 4.0 mg/kg/injection, schedule: Q01DX009 (ip), vehicle: saline, evaluated on day 45): 171 % of control
T/C (dose: 4.0 mg/kg/injection, schedule: Q04DX003 (ip), vehicle: saline, evaluated on day 5): 162, 170, 174, 230 % of control
T/C (dose: 4.0 mg/kg/injection, schedule: Q04DX003 (ip), vehicle: saline, evaluated on day 30): 108, 160, 184, 197 % of control
T/C (dose: 4.0 mg/kg/injection, schedule: Q04DX003 (ip), vehicle: saline, evaluated on day 45): 177 % of control
T/C (dose: 4.0 mg/kg/injection, schedule: Q## X010 (oral), vehicle: saline): 136 % of control [9 of 10 alive]
T/C (dose: 6.0 mg/kg/injection, schedule: Q01DX009 (ip), vehicle: Klucel (hydroxypropylcellulose) (HPC)): 146 % of control
survivor count (dose: 7.5 mg/kg/injection, schedule: Q01DX007 (ip), vehicle: saline with Tween-80): 5 of 6
survivor count (dose: 7.5 mg/kg/injection, schedule: Q01DX009 (ip), vehicle: saline with Tween-80): 3 of 6
T/C (dose: 8.0 mg/kg/injection, schedule: Q01DX001 (ip), vehicle: Klucel (hydroxypropylcellulose) (HPC)): 145 % of control
T/C (dose: 8.0 mg/kg/injection, schedule: Q01DX001 (ip), vehicle: other): 133 % of control
T/C (dose: 8.0 mg/kg/injection, schedule: Q01DX001 (ip), vehicle: saline, evaluated on day 30): 140, 151, 162, 168 % of control
T/C (dose: 8.0 mg/kg/injection, schedule: Q01DX001 (ip), vehicle: saline, evaluated on day 45): 271 % of control
T/C (dose: 8.0 mg/kg/injection, schedule: Q01DX005 (oral), vehicle: saline): 140 % of control
T/C (dose: 8.0 mg/kg/injection, schedule: Q01DX007 (ip), vehicle: saline): 128 % of control
T/C (dose: 8.0 mg/kg/injection, schedule: Q01DX009 (ip), vehicle: Klucel (hydroxypropylcellulose) (HPC)): 90 [5 of 6 alive], 112, 125 (2×), 133 % of control
T/C (dose: 8.0 mg/kg/injection, schedule: Q01DX009 (ip), vehicle: saline, evaluated on day 30): 103, 108, 113, 130 % of control
T/C (dose: 8.0 mg/kg/injection, schedule: Q01DX009 (ip), vehicle: saline, evaluated on day 45): 128 % of control
survivor count (dose: 8.0 mg/kg/injection, schedule: Q01DX009 (ip), vehicle: saline): 6 of 6
